Laboratory results as given in publication PMC7356634.
These are yes or no findings as the source states them, for the method shown. In cells and extracts the contact can be indirect. Some results given as binding are weak or reduced against the parent protein; the word gives no strength. Tags and fused reporters may be left off the sequences shown.

T1: myc-tagged UL35 (HCMV tegument protein ppUL35) (human cytomegalovirus (HCMV)) (UniProt F5HE12)
T1 sequence: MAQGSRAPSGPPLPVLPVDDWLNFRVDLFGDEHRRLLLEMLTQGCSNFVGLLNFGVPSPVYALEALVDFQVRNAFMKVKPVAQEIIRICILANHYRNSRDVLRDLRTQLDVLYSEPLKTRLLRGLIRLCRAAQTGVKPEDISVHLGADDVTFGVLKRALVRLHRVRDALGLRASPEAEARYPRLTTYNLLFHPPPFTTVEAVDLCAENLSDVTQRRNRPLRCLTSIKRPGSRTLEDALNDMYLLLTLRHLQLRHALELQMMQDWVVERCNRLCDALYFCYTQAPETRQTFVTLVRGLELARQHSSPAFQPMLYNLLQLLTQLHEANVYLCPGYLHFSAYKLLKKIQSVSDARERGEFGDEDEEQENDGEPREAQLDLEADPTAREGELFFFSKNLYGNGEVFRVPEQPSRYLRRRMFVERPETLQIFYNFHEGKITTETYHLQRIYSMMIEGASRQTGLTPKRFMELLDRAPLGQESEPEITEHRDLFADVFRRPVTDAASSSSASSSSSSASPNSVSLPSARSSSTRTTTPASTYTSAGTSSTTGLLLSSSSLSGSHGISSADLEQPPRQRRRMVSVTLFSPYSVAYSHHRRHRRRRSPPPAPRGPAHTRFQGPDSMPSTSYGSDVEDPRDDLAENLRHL

T2: UL35-HA (C-terminally HA-tagged UL35, wildtype) (human cytomegalovirus (HCMV)) (UniProt F5HE12)
T2 sequence: T1 sequence

B1: O-linked N-acetylglucosamine (GlcNAc) transferase (OGT), endogenous (enzyme, UniProt O15294 1-1046)
chain: MASSVGNVADSTEPTKRMLSFQGLAELAHREYQAGDFEAAERHCMQLWRQEPDNTGVLLLLSSIHFQCRRLDRSAHFSTLAIKQNPLLAEAYSNLGNVYKERGQLQEAIEHYRHALRLKPDFIDGYINLAAALVAAGDMEGAVQAYVSALQYNPDLYCVRSDLGNLLKALGRLEEAKACYLKAIETQPNFAVAWSNLGCVFNAQGEIWLAIHHFEKAVTLDPNFLDAYINLGNVLKEARIFDRAVAAYLRALSLSPNHAVVHGNLACVYYEQGLIDLAIDTYRRAIELQPHFPDAYCNLANALKEKGSVAEAEDCYNTALRLCPTHADSLNNLANIKREQGNIEEAVRLYRKALEVFPEFAAAHSNLASVLQQQGKLQEALMHYKEAIRISPTFADAYSNMGNTLKEMQDVQGALQCYTRAIQINPAFADAHSNLASIHKDSGNIPEAIASYRTALKLKPDFPDAYCNLAHCLQIVCDWTDYDERMKKLVSIVADQLEKNRLPSVHPHHSMLYPLSHGFRKAIAERHGNLCLDKINVLHKPPYEHPKDLKLSDGRLRVGYVSSDFGNHPTSHLMQSIPGMHNPDKFEVFCYALSPDDGTNFRVKVMAEANHFIDLSQIPCNGKAADRIHQDGIHILVNMNGYTKGARNELFALRPAPIQAMWLGYPGTSGALFMDYIITDQETSPAEVAEQYSEKLAYMPHTFFIGDHANMFPHLKKKAVIDFKSNGHIYDNRIVLNGIDLKAFLDSLPDVKIVKMKCPDGGDNADSSNTALNMPVIPMNTIAEAVIEMINRGQIQITINGFSISNGLATTQINNKAATGEEVPRTIIVTTRSQYGLPEDAIVYCNFNQLYKIDPSTLQMWANILKRVPNSVLWLLRFPAVGEPNIQQYAQNMGLPQNRIIFSPVAPKEEHVRRGQLADVCLDTPLCNGHTTGMDVLWAGTPMVTMPGETLASRVAASQLTCLGCLELIAKNRQEYEDIAVKLGTDLEYLKKVRGKVWKQRISSPLFNTKQYTMELERLYLQMWEHYAAGNKPDHMIKPVEVTESA
B2: untagged OGT (pcDNA3.1+ OGT) (enzyme, UniProt O15294 1-1046)
chain: B1 chain
B3: TANK-binding kinase 1 (TBK1), pcDNA3-FLAG-TBK1 (enzyme, UniProt Q9UHD2 1-729)
chain: MQSTSNHLWLLSDILGQGATANVFRGRHKKTGDLFAIKVFNNISFLRPVDVQMREFEVLKKLNHKNIVKLFAIEEETTTRHKVLIMEFCPCGSLYTVLEEPSNAYGLPESEFLIVLRDVVGGMNHLRENGIVHRDIKPGNIMRVIGEDGQSVYKLTDFGAARELEDDEQFVSLYGTEEYLHPDMYERAVLRKDHQKKYGATVDLWSIGVTFYHAATGSLPFRPFEGPRRNKEVMYKIITGKPSGAISGVQKAENGPIDWSGDMPVSCSLSRGLQVLLTPVLANILEADQEKCWGFDQFFAETSDILHRMVIHVFSLQQMTAHKIYIHSYNTATIFHELVYKQTKIISSNQELIYEGRRLVLEPGRLAQHFPKTTEENPIFVVSREPLNTIGLIYEKISLPKVHPRYDLDGDASMAKAITGVVCYACRIASTLLLYQELMRKGIRWLIELIKDDYNETVHKKTEVVITLDFCIRNIEKTVKVYEKLMKINLEAAELGEISDIHTKLLRLSSSQGTIETSLQDIDSRLSPGGSLADAWAHQEGTHPKDRNVEKLQVLLNCMTEIYYQFKKDKAERRLAYNEEQIHKFDKQKLYYHATKAMTHFTDECVKKYEAFLNKSEEWIRKMLHLRKQLLSLTNQCFDIEEEVSKYQEYTNELQETLPQKMFTASSGIKHTMTPIYPSSNTLVEMTLGMKKLKEEMEGVVKELAENNHILERFGSLTMDGGLRNVDCL

Assays:
[1] = biological target: T1, myc-tagged UL35 (HCMV tegument protein ppUL35) (human cytomegalovirus (HCMV)); experiment: co-IP; HEK293T transfected with one myc-tagged protein; IP with anti-myc antibody and protein A agarose in IP lysis buffer (20 mM Tris-HCl pH 7.5, 150 mM NaCl, 1% IGEPAL CA-630, 0.25% sodium deoxycholate, 0.1% SDS), 7 washes; blot for endogenous OGT
[2] = biological target: T2, UL35-HA (C-terminally HA-tagged UL35, wildtype) (human cytomegalovirus (HCMV)); experiment: co-IP

Binder | binding [1] | binding [2]
B1 | binds | 
B2 |  | binds
B3 |  | binds
